No constants are given. Whether binding was seen depends on the method and setting. In cells and extracts the contact can be indirect. Some binding calls cover weakened binding; strength is not graded here. For some assays here: Tags and fused reporters may be left off the sequences shown. Each block holds one molecule with its values, some of them ahead of it.
Tests used:
Flag-PARP3^WT = target: T1, Flag-PARP3^WT (UniProt Q9Y6F1); assay: co-IP; anti-Flag M2 agarose on RIPA whole cell lysates of PARP3^-/-3 LN229 cells stably expressing Flag, Flag-PARP3^WT or Flag-PARP3^HE; lysates pretreated with DNase I; 4 h at 4 °C; washes with 250 and 150 mM NaCl; blots for G9a, GLP1, Wiz
T1 sequence: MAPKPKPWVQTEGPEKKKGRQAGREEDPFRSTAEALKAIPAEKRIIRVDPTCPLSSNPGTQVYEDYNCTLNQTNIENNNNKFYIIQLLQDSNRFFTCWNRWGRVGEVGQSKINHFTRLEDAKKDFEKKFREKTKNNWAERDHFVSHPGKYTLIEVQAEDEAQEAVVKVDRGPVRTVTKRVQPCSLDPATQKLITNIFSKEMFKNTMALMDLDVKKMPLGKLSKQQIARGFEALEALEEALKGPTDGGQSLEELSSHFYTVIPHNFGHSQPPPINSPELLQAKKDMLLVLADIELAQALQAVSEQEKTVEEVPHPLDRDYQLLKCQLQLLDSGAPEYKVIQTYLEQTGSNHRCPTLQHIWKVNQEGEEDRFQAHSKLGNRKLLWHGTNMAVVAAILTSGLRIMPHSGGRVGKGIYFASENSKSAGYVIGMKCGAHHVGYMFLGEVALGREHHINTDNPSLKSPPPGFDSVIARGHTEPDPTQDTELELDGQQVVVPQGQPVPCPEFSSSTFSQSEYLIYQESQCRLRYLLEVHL

Protein sequences, listed by entry. Tags and fused reporters are not part of them.
UniProt O95785: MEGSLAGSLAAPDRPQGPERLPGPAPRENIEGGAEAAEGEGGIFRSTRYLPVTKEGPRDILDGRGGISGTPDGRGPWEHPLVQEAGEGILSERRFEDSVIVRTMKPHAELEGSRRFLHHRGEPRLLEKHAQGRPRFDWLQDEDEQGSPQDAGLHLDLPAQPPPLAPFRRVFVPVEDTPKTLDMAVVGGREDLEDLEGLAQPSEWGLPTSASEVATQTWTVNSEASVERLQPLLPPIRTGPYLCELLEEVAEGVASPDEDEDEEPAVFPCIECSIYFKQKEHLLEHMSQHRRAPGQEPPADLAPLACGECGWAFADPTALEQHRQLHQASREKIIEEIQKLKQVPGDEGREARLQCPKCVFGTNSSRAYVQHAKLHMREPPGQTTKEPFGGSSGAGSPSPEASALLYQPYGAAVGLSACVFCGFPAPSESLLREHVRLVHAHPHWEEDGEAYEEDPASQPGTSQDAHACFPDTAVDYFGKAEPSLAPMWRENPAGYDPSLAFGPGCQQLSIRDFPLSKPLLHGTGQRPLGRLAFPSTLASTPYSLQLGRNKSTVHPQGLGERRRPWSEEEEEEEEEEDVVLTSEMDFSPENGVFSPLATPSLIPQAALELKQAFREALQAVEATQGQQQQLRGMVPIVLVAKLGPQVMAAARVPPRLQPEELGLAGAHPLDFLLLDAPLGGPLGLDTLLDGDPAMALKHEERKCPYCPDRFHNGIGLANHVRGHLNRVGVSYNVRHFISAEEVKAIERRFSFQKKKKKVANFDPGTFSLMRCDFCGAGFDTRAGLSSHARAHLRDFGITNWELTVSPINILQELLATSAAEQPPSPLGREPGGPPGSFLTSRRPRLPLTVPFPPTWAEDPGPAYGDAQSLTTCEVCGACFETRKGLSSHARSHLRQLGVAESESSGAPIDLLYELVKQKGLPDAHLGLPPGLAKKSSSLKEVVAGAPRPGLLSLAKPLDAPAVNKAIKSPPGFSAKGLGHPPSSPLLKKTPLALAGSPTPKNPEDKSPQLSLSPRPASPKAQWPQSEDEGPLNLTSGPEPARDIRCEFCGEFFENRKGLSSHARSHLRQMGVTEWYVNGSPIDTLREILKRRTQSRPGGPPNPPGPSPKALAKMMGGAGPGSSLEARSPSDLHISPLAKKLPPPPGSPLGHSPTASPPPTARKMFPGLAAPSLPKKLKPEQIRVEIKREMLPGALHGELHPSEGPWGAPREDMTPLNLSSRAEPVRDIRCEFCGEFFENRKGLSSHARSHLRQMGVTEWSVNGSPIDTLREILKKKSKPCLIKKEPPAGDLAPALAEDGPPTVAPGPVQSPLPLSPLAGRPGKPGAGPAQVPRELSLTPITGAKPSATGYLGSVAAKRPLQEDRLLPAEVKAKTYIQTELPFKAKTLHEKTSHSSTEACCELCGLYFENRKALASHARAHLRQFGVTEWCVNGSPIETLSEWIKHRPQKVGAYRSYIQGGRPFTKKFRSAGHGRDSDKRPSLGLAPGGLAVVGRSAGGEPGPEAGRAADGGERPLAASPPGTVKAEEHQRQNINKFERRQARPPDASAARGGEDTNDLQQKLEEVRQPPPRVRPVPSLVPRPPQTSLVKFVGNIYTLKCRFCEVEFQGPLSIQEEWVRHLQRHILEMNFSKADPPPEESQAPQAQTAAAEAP

EGFP-PARP3 = target: T2, EGFP-PARP3 (UniProt Q9Y6F1); assay: co-IP; EGFP-PARP3 or EGFP immunoprecipitates from HEK cells; blots for G9a and Wiz (Sup. Fig. 2a)
T2 sequence: T1 sequence

EGFP-G9a [1] = target: EGFP-G9a (UniProt Q96KQ7); assay: co-IP; EGFP-G9a or EGFP transfected into WT or PARP3^-/-3 LN229 cells; GFP-binding agarose beads (Chromotek); DNase I-treated RIPA lysates; blots for Wiz and GLP1
EGFP-G9a, Q96KQ7 = target: T3, EGFP-G9a, Q96KQ7; assay: as above; details: remark: other sources report otherwise
T3 chain: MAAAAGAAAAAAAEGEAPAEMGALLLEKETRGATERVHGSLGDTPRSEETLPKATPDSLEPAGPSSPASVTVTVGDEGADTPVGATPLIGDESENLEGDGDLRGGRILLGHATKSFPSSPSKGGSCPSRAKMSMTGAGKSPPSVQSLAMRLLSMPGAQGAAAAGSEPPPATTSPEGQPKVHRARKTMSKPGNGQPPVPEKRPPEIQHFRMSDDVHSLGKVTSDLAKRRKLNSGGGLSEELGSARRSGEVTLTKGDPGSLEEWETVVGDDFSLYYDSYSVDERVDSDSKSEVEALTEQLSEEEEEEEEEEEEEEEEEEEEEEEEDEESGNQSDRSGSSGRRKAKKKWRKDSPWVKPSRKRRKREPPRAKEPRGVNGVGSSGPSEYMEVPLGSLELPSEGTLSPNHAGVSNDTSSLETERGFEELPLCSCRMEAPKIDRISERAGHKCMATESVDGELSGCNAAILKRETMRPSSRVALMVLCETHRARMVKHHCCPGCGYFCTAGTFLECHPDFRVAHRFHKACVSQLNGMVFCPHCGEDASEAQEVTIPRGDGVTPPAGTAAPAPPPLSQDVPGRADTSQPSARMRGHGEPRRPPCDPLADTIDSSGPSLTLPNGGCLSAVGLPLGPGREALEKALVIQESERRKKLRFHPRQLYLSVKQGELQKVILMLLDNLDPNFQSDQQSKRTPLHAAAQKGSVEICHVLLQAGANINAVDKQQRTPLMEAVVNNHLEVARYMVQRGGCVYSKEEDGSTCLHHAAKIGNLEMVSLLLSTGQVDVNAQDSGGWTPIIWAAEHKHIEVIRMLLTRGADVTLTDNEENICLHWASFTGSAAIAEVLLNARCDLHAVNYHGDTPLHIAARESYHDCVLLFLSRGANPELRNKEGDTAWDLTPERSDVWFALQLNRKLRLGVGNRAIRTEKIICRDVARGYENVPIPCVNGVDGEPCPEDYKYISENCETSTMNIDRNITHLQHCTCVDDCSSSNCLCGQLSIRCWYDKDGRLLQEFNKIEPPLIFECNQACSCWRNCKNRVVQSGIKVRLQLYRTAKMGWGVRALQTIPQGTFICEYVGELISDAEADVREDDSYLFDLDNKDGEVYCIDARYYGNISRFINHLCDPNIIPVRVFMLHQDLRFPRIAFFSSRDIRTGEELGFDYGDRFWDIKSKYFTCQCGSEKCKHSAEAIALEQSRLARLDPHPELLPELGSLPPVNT

EGFP-G9a [2] = target: EGFP-G9a (UniProt Q96KQ7); assay: co-IP; reciprocal: EGFP-G9a or EGFP as bait, transfected into PARP3^-/-3-Flag-PARP3^WT LN229 cells; GFP-binding agarose beads (Chromotek); DNase I-treated RIPA lysates (Sup. Fig. 2b)

binding (Flag-PARP3^WT): binds
Molecule: G9a (from UniProt Q96KQ7 1-1210) (enzyme)

binding (EGFP-PARP3): binds
Molecule: G9a (in HEK cells) (from UniProt Q96KQ7 1-1210) (enzyme)

binding (Flag-PARP3^WT): binds
Molecule: GLP1 (from UniProt Q9H9B1 1-1298) (enzyme)

binding (EGFP-G9a [1]): binds
binding (Flag-PARP3^WT): binds
Molecule: Widely Interspaced Zinc Finger (WIZ) (from UniProt O95785 1-1651)

binding (EGFP-PARP3): binds
Molecule: Wiz (in HEK cells) (from UniProt O95785 1-1651)

binding (EGFP-G9a, Q96KQ7): binds
B1: GLP1, Q9H9B1 1-1298 (enzyme)
chain: MAAADAEAVPARGEPQQDCCVKTELLGEETPMAADEGSAEKQAGEAHMAADGETNGSCENSDASSHANAAKHTQDSARVNPQDGTNTLTRIAENGVSERDSEAAKQNHVTADDFVQTSVIGSNGYILNKPALQAQPLRTTSTLASSLPGHAAKTLPGGAGKGRTPSAFPQTPAAPPATLGEGSADTEDRKLPAPGADVKVHRARKTMPKSVVGLHAASKDPREVREARDHKEPKEEINKNISDFGRQQLLPPFPSLHQSLPQNQCYMATTKSQTACLPFVLAAAVSRKKKRRMGTYSLVPKKKTKVLKQRTVIEMFKSITHSTVGSKGEKDLGASSLHVNGESLEMDSDEDDSEELEEDDGHGAEQAAAFPTEDSRTSKESMSEADRAQKMDGESEEEQESVDTGEEEEGGDESDLSSESSIKKKFLKRKGKTDSPWIKPARKRRRRSRKKPSGALGSESYKSSAGSAEQTAPGDSTGYMEVSLDSLDLRVKGILSSQAEGLANGPDVLETDGLQEVPLCSCRMETPKSREITTLANNQCMATESVDHELGRCTNSVVKYELMRPSNKAPLLVLCEDHRGRMVKHQCCPGCGYFCTAGNFMECQPESSISHRFHKDCASRVNNASYCPHCGEESSKAKEVTIAKADTTSTVTPVPGQEKGSALEGRADTTTGSAAGPPLSEDDKLQGAASHVPEGFDPTGPAGLGRPTPGLSQGPGKETLESALIALDSEKPKKLRFHPKQLYFSARQGELQKVLLMLVDGIDPNFKMEHQNKRSPLHAAAEAGHVDICHMLVQAGANIDTCSEDQRTPLMEAAENNHLEAVKYLIKAGALVDPKDAEGSTCLHLAAKKGHYEVVQYLLSNGQMDVNCQDDGGWTPMIWATEYKHVDLVKLLLSKGSDINIRDNEENICLHWAAFSGCVDIAEILLAAKCDLHAVNIHGDSPLHIAARENRYDCVVLFLSRDSDVTLKNKEGETPLQCASLNSQVWSALQMSKALQDSAPDRPSPVERIVSRDIARGYERIPIPCVNAVDSEPCPSNYKYVSQNCVTSPMNIDRNITHLQYCVCIDDCSSSNCMCGQLSMRCWYDKDGRLLPEFNMAEPPLIFECNHACSCWRNCRNRVVQNGLRARLQLYRTRDMGWGVRSLQDIPPGTFVCEYVGELISDSEADVREEDSYLFDLDNKDGEVYCIDARFYGNVSRFINHHCEPNLVPVRVFMAHQDLRFPRIAFFSTRLIEAGEQLGFDYGERFWDIKGKLFSCRCGSPKCRHSSAALAQRQASAAQEAQEDGLPDTSSAAAADPL

binding (EGFP-G9a [2]): binds
B2: Flag-PARP3^WT (enzyme, UniProt Q9Y6F1 1-533)
chain: T1 sequence
